Data reported in US20220204629A1.
These are yes or no findings as the source states them, for the method shown. Some entries that bind do so weakly or less than the wild type. Sequences can lack the tags named with a protein.

Sequences of proteins named here, by UniProt entry; tags and fusion partners are left off. A change or cut given only in a name is not applied to a line headed by its entry. A line that says so, or that is headed by a name, gives the form on record, which may keep a tag or linker.
recombinant, full length human Galectin-9 (R&D Systems 2045-GA) (O00182, form named): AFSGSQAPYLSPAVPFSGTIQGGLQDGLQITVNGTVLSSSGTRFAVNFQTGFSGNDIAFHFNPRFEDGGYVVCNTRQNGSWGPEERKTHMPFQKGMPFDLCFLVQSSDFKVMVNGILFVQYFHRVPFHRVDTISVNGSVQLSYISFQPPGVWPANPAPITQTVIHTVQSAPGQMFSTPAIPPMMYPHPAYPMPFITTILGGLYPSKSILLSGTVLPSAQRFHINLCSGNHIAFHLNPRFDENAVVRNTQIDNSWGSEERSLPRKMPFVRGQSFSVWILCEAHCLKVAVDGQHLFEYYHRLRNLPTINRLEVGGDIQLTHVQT

Molecular target: recombinant, full length human Galectin-9 (R&D Systems 2045-GA) (human) (UniProt O00182)
Assay: ELISA, full length galectin-9 immobilized

- binding: binds
B1: CD206 human recombinant protein, His-tagged (receptor, UniProt P22897 19-1383, looked up)
chain: LLDTRQFLIYNEDHKRCVDAVSPSAVQTAACNQDAESQKFRWVSESQIMSVAFKLCLGVPSKTDWVAITLYACDSKSEFQKWECKNDTLLGIKGEDLFFNYGNRQEKNIMLYKGSGLWSRWKIYGTTDNLCSRGYEAMYTLLGNANGATCAFPFKFENKWYADCTSAGRSDGWLWCGTTTDYDTDKLFGYCPLKFEGSESLWNKDPLTSVSYQINSKSALTWHQARKSCQQQNAELLSITEIHEQTYLTGLTSSLTSGLWIGLNSLSFNSGWQWSDRSPFRYLNWLPGSPSAEPGKSCVSLNPGKNAKWENLECVQKLGYICKKGNTTLNSFVIPSESDVPTHCPSQWWPYAGHCYKIHRDEKKIQRDALTTCRKEGGDLTSIHTIEELDFIISQLGYEPNDELWIGLNDIKIQMYFEWSDGTPVTFTKWLRGEPSHENNRQEDCVVMKGKDGYWADRGCEWPLGYICKMKSRSQGPEIVEVEKGCRKGWKKHHFYCYMIGHTLSTFAEANQTCNNENAYLTTIEDRYEQAFLTSFVGLRPEKYFWTGLSDIQTKGTFQWTIEEEVRFTHWNSDMPGRKPGCVAMRTGIAGGLWDVLKCDEKAKFVCKHWAEGVTHPPKPTTTPEPKCPEDWGASSRTSLCFKLYAKGKHEKKTWFESRDFCRALGGDLASINNKEEQQTIWRLITASGSYHKLFWLGLTYGSPSEGFTWSDGSPVSYENWAYGEPNNYQNVEYCGELKGDPTMSWNDINCEHLNNWICQIQKGQTPKPEPTPAPQDNPPVTEDGWVIYKDYQYYFSKEKETMDNARAFCKRNFGDLVSIQSESEKKFLWKYVNRNDAQSAYFIGLLISLDKKFAWMDGSKVDYVSWATGEPNFANEDENCVTMYSNSGFWNDINCGYPNAFICQRHNSSINATTVMPTMPSVPSGCKEGWNFYSNKCFKIFGFMEEERKNWQEARKACIGFGGNLVSIQNEKEQAFLTYHMKDSTFSAWTGLNDVNSEHTFLWTDGRGVHYTNWGKGYPGGRRSSLSYEDADCVVIIGGASNEAGKWMDDTCDSKRGYICQTRSDPSLTNPPATIQTDGFVKYGKSSYSLMRQKFQWHEAETYCKLHNSLIASILDPYSNAFAWLQMETSNERVWIALNSNLTDNQYTWTDKWRVRYTNWAADEPKLKSACVYLDLDGYWKTAHCNESFYFLCKRSDEIPATEPPQLPGRCPESDHTAWIPFHGHCYYIESSYTRNWGQASLECLRMGSSLVSIESAAESSFLSYRVEPLKSKTNFWIGLFRNVEGTWLWINNSPVSFVNWNTGDPSGERNDCVALHASSGFWSNIHCSSYKGYICKRPKIIDAKPTHELLTTKADTRKMDPSK
